Experimental data: PubChem BioAssay AID720710 (VTT Finland, 2013)
Aim: 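Genes whose loss lowers DNA synthesis when an oncogene drives replication stress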 (primary screen). Cells: human U-2 OS bone cancer cells, parental and a cyclin E (CCNE1) overexpressing line. Reagents: single siRNA against human genes, 1 µM siRNA in the printed spot mix. Timing: 67 h. Challenge: half the arrays: hydroxyurea 2 mM for 16 h, then 3 h recovery; other arrays untreated. Detection: 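EdU click signal imaged per DAPI-stained nucleus at 67 h; each spot divided by its subgrid median, then z-scored relative to non-targeting control spots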. Scale: EdU z-score, cyclin E line, hydroxyurea and EdU z-score, parental, hydroxyurea and EdU z-score, cyclin E line, untreated: higher = more DNA synthesis than non-targeting controls.
Shown is a random part of about 1,380 reagents. 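One array per condition without replicates; hydroxyurea arrays received 2 mM for 16 h plus 3 h recovery.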 Reagents against one gene are numbered here. Further read-outs or replicates are left out here. Reagent sequences are not shown.

The opening 2 entries as a preview:
| target | siRNA no. | EdU z-score, cyclin E line, hydroxyurea | EdU z-score, parental, hydroxyurea | EdU z-score, cyclin E line, untreated |
| --- | --- | --- | --- | --- |
| ATP23 | 1 | -2.18 | -1.13 | -1.64 |
| ATP23 | 2 | -0.689 | -1.02 | -0.801 |

Results, repeating the preview:
| target | siRNA no. | EdU z-score, cyclin E line, hydroxyurea | EdU z-score, parental, hydroxyurea | EdU z-score, cyclin E line, untreated |
| --- | --- | --- | --- | --- |
| ATP23 | 1 | -2.18 | -1.13 | -1.64 |
| ATP23 | 2 | -0.689 | -1.02 | -0.801 |
| ZNF521 (zinc finger protein 521) | 1 | -0.61 | 0.949 | -3.23 |
| ZNF521 (zinc finger protein 521) | 2 | 0.938 | 1.59 | -1.09 |
| GPR158 (G protein-coupled receptor 158) | 1 | -2.55 | 0.53 | -0.642 |
| GPR158 (G protein-coupled receptor 158) | 2 | 2.06 | 3.48 | 0.283 |
| EGF (epidermal growth factor) | 1 | -0.959 | 0.222 | -0.806 |
| EGF (epidermal growth factor) | 2 | 0.813 | 1.67 | 1.19 |
| MBD4 (methyl-CpG binding domain 4, DNA glycosylase) | 1 | -2.48 | -0.83 | -2.6 |
| MBD4 (methyl-CpG binding domain 4, DNA glycosylase) | 2 | -1.79 | -0.00442 | -2.54 |
| DCLRE1B (DNA cross-link repair 1B) | 1 | -0.273 | -0.564 | -3.76 |
| DCLRE1B (DNA cross-link repair 1B) | 2 | 0.648 | 1.38 | -0.439 |
| CBX3 (chromobox 3) | 1 | -3.62 | -2.6 | -1.48 |
| CBX3 (chromobox 3) | 2 | -0.694 | 1.3 | -0.807 |
| MCM10 (minichromosome maintenance 10 replication initiation factor) | 1 | -0.908 | 0.658 | -2.07 |
| MCM10 (minichromosome maintenance 10 replication initiation factor) | 2 | 1.31 | 1.18 | 0.911 |
| RAD23B (RAD23 nucleotide excision repair protein B) | 1 | -1.17 | -3.49 | -0.737 |
| RAD23B (RAD23 nucleotide excision repair protein B) | 2 | -0.342 | 3.69 | -0.558 |
| RAD9A (RAD9 checkpoint clamp component A) | 1 | -0.29 | -2.64 | -1.33 |
| RAD9A (RAD9 checkpoint clamp component A) | 2 | 1.01 | 0.534 | -1.02 |
| SPRTN (SprT-like N-terminal domain) | 1 | -1.11 | -0.515 | -1.53 |
| SPRTN (SprT-like N-terminal domain) | 2 | 0.138 | 0.03 | -0.87 |
| TOP1MT (DNA topoisomerase I mitochondrial) | 1 | 0.339 | 0.0529 | -0.935 |
| TOP1MT (DNA topoisomerase I mitochondrial) | 2 | 0.446 | 0.354 | 1.23 |
